Experimental data reported in the supplement of paper PMC10849652.
Some of the results follow.

Protein sequences, listed by entry. Tags and fused reporters are not part of them. Lines headed by an entry give the natural chain unless they say otherwise; changes in a name come on top.
UniProt Q9UGJ1, whole entry, looked up: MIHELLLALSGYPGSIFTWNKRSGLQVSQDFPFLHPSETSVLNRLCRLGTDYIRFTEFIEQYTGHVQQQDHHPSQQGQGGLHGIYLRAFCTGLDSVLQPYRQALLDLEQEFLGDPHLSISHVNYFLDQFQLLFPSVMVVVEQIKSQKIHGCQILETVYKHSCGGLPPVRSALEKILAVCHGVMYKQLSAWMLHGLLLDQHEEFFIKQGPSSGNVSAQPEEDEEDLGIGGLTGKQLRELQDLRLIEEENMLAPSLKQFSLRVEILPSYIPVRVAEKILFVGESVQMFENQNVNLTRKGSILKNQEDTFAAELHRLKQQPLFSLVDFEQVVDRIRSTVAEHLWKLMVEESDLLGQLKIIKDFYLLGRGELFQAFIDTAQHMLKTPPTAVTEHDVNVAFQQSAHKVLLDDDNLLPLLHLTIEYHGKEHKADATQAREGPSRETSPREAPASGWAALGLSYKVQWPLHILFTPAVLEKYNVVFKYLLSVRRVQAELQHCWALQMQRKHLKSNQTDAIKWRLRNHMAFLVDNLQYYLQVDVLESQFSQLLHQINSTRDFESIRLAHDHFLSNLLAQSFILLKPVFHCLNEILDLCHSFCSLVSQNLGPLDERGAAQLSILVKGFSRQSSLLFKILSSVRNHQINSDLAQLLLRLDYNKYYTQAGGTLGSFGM
UniProt Q9NX01: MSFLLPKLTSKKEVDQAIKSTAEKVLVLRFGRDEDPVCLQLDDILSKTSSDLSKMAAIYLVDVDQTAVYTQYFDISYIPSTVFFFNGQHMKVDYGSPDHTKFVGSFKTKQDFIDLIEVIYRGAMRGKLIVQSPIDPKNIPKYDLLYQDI
UniProt Q3B726, whole entry, looked up: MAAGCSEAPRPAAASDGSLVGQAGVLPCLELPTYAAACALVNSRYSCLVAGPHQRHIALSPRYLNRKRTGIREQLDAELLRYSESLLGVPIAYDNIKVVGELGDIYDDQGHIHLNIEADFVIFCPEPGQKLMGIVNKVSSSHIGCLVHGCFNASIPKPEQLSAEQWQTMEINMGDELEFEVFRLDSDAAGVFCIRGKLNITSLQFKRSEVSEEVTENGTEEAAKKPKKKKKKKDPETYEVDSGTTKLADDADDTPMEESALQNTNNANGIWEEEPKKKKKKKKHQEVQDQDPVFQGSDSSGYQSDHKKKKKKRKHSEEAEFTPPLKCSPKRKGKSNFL
UniProt Q14CS0: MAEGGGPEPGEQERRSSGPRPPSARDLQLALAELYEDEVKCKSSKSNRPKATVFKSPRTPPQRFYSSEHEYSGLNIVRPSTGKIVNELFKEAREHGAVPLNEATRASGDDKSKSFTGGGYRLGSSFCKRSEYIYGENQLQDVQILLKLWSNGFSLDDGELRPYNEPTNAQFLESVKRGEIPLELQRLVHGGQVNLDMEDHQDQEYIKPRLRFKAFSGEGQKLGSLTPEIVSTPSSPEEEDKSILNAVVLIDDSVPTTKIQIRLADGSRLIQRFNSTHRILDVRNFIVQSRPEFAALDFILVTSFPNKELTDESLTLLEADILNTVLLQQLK
UniProt Q9NRR5, whole entry, looked up: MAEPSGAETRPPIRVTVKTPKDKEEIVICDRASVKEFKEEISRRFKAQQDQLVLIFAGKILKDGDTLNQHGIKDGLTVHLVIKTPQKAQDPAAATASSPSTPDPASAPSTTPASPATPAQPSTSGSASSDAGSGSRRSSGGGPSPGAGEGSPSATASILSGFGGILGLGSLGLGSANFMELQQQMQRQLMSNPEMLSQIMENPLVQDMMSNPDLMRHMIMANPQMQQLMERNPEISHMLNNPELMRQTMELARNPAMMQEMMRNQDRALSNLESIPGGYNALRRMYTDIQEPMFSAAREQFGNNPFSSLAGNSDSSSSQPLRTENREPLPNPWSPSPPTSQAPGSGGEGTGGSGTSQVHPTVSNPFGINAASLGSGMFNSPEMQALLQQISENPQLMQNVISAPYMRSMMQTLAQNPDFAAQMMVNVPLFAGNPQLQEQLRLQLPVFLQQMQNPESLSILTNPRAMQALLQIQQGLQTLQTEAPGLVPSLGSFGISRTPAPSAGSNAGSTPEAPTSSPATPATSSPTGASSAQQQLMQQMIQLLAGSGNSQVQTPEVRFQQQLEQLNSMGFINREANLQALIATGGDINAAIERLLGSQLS
UniProt P49459, whole entry, looked up: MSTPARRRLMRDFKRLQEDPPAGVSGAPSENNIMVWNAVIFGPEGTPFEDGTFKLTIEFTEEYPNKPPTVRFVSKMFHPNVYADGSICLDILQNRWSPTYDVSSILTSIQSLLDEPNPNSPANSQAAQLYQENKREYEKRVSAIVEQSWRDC
UniProt Q04323: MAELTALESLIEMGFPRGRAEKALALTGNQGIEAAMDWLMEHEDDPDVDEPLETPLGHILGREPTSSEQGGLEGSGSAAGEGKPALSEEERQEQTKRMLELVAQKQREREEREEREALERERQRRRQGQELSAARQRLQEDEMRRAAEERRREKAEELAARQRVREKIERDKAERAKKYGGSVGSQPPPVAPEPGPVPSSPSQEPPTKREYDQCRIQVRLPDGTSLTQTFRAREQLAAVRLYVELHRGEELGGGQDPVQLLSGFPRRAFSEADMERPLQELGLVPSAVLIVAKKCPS
UniProt Q9C0C9: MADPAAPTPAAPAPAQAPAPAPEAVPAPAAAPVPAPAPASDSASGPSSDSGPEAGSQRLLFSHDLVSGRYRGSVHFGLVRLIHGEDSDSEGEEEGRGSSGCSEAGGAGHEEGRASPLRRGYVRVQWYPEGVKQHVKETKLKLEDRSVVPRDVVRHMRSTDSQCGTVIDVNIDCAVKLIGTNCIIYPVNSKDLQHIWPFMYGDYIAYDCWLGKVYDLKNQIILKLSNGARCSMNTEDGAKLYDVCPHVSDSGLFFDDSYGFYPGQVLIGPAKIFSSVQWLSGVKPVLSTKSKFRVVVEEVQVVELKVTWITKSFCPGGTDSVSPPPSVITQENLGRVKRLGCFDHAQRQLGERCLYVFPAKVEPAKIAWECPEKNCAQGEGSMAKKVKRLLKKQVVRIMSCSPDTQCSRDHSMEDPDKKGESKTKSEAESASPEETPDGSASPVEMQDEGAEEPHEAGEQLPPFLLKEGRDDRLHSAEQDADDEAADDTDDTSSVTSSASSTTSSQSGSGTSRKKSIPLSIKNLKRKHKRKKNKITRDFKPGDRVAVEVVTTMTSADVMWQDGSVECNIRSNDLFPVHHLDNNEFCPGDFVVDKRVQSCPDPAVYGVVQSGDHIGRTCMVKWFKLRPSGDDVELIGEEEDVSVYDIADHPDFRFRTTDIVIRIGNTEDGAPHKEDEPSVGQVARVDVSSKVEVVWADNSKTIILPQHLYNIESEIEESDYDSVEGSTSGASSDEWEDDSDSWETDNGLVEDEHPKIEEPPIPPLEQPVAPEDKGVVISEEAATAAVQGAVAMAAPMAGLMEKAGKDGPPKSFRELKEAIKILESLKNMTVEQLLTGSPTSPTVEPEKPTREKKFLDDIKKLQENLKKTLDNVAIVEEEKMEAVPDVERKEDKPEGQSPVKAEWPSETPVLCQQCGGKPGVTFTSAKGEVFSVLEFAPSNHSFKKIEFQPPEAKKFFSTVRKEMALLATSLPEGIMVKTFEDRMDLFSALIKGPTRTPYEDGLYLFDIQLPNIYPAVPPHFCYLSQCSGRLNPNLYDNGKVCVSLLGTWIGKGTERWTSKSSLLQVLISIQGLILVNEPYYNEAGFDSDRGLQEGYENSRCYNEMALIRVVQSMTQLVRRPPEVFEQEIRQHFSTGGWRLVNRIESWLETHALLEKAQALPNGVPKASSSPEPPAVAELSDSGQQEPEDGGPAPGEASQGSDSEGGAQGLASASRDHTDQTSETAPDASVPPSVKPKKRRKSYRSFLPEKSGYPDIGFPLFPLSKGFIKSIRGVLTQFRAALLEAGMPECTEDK
UniProt Q14139: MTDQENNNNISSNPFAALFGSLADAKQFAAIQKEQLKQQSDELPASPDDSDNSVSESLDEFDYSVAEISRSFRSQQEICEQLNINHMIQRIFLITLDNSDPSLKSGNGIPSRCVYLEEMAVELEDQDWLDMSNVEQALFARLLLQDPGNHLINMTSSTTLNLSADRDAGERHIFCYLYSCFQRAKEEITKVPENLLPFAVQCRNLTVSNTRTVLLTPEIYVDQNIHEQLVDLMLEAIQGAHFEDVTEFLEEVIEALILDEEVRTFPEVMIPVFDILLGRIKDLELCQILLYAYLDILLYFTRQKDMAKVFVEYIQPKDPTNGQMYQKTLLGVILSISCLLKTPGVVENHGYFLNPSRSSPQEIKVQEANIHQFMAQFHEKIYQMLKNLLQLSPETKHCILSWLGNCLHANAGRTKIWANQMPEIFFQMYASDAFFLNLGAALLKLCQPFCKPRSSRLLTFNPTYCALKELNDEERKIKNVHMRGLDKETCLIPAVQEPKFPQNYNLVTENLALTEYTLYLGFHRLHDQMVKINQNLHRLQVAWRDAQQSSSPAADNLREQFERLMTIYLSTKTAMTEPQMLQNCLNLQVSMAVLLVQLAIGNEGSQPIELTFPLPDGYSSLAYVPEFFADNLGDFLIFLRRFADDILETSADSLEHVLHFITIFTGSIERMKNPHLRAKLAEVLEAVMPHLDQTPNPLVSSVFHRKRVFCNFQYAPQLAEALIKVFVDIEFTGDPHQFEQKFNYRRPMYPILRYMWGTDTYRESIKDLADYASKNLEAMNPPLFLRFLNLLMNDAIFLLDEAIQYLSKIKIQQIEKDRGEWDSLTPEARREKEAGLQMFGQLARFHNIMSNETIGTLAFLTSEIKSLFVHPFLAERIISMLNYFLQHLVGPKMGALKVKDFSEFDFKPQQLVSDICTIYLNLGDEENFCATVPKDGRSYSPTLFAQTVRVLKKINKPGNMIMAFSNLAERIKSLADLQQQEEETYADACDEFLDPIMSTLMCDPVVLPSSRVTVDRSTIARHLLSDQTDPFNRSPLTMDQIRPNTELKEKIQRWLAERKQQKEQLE
UniProt Q3KQV9: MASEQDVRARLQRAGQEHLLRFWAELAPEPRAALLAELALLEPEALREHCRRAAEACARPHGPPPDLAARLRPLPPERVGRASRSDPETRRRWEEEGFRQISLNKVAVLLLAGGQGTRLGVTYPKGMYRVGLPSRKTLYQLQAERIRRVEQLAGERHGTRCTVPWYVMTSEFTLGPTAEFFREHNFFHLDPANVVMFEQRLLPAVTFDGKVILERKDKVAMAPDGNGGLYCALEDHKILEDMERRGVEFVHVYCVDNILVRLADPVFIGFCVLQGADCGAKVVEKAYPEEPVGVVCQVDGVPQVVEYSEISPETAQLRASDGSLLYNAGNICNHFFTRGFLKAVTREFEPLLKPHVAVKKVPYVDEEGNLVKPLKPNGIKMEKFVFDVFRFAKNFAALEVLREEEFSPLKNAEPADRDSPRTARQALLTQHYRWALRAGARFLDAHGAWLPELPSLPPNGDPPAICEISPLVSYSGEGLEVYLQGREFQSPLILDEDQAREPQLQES
UniProt Q99757: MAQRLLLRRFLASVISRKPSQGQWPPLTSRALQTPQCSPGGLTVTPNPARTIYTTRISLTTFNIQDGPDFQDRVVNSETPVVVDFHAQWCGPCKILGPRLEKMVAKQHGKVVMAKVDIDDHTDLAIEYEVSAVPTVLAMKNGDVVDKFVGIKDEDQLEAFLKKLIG
UniProt Q16763: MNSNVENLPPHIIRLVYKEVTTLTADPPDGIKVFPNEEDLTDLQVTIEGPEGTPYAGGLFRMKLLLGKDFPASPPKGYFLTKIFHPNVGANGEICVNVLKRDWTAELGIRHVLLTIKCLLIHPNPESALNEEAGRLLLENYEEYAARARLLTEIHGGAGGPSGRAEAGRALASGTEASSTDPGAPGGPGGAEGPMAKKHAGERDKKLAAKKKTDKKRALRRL
UniProt Q96J42: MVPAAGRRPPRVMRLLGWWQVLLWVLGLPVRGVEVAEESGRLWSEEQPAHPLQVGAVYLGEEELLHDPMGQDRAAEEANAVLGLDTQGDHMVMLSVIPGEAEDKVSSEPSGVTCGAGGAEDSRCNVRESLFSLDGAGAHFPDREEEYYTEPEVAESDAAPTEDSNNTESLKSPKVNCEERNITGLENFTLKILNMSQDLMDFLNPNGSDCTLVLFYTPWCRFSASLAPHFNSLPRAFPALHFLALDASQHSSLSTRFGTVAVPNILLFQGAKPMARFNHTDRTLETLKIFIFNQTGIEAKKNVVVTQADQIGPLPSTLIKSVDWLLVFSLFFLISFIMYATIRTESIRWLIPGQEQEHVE
UniProt P07437, whole entry, looked up: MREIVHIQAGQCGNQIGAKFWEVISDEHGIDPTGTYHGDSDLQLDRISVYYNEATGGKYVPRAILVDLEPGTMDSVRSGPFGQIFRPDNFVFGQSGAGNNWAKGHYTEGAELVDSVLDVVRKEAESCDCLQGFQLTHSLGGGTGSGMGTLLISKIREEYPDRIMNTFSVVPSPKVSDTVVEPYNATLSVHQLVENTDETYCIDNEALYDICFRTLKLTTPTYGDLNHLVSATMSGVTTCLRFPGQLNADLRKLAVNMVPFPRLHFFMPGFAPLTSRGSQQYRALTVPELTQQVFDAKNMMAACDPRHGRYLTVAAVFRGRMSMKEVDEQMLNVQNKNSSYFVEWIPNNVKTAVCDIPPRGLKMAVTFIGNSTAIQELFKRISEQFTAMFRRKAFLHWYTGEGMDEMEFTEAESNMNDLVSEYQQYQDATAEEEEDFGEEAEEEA

Legend:
Assay in all cases: log2 fold change, soluble protein after heating vs DMSO (PISA); higher = thermal stabilisation; K562 lysate, 10 uM; active = over 0.2 and 3.5 SD of the protein, either way, in both replicates (recomputed)
erlotinib = compound: C#Cc1cccc(Nc2ncnc3cc(OCCOC)c(OCCOC)cc23)c1 [erlotinib]
Procedure, shortened: (§1)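 To prepare the extract, K562 pellets were dounce-homogenised in PBS pH 7.4 with 1 mM MgCl2, giving crude material at 1 mg/mL protein. This was treated with 10 μM compound for 30 min, then heated in aliquots for 3 min over 48°C-58°C before pooling and addition of NP-40 to 0.5% at 4°C. Centrifugation at 21,000xg for 90 min left soluble protein in the supernatant, which TMTpro 16plex LC-MS/MS quantified with equalised channel sums. Results are log-two fold changes in thermal stability compared with solvent controls, from duplicates.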

[1] = compound: C/C(=N\NC(=O)C1=CC(=CC=C1)S(=O)(=O)N2CCOCC2)/C3=C(C=CC(=C3)Cl)O
Procedure, shortened: as §1

[2] = compound: C1=CC(=CC=C1C2=NC3=C(N2)C=C(C=C3)C(=O)N)OC4=CC=C(C=C4)Cl
Procedure, shortened: as §1

[3] = compound: C1=CC2=C(C=CC(=C2)/C=C\3/C(=O)NC(=NCC4=CC=CS4)S3)N=C1
Procedure, shortened: as §1

[4] = compound: C1=CC2=NC=CN=C2C=C1/C=C/3\C(=O)NC(=O)S3
Procedure, shortened: as §1

[5] = compound: C1=CC=C(C=C1)C2=NC(=C(N2)C3=CC=NC=C3)C4=CC(=C(C=C4)Cl)O
Procedure, shortened: as §1

[6] = compound: C1=CC=C2C(=C1)C3=NNC4=CC=CC(=C43)C2=O
Procedure, shortened: as §1

[7] = compound: C1CCN(C1)C(=O)NC2=CC=CC(=C2)NC3=NC=C(C(=N3)NCCC4=CN=CN4)Br
Procedure, shortened: as §1

[8] = compound: C1CN(CCC1(CC2=CC=C(C=C2)Cl)N)C3=NC=NC4=C3C=CN4
Procedure, shortened: as §1

IRAK-1-4 Inhibitor I = compound: C1COCCN1CCN2C3=CC=CC=C3N=C2NC(=O)C4=CC(=CC=C4)[N+](=O)[O-] [IRAK-1-4 Inhibitor I]
Procedure, shortened: as §1

Measured: log2 fold change

UBE2K (UniProt P61086)
inactive: erlotinib 0.014 | [1] 0.021 | [2] 0.033 | [3] 0.002 | [4] 0.009 | [5] 0.004 | [6] 0.023 | [7] 0.006 | [8] 0.036 | IRAK-1-4 Inhibitor I 0.007

TUBB1 (UniProt Q9H4B7)
inactive: erlotinib 0.011 | [1] 0.091 | [2] 0.005 | [3] 0.01 | [4] 0.022 | [5] -0.011 | [6] 0.014 | [7] 0.015 | [8] 0.027 | IRAK-1-4 Inhibitor I 0.019

UBR3 isoform 4 (UniProt Q6ZT12)
inactive: erlotinib 0.016 | [1] 0.044 | [2] 0.016 | [3] 0.027 | [4] 0.005 | [5] 0.005 | [6] -0.07 | [7] -0.063 | [8] 0.032 | IRAK-1-4 Inhibitor I -0.007

TUBB6 (UniProt Q9BUF5)
inactive: erlotinib 0.039 | [1] 0.051 | [2] -0.002 | [3] 0.017 | [4] 0 | [5] 0.005 | [6] 0.009 | [7] -0.013 | [8] 0.057 | IRAK-1-4 Inhibitor I -0.003

TUBGCP4 (UniProt Q9UGJ1)
inactive: erlotinib -0.017 | [1] -0.017 | [2] -0.007 | [3] 0.015 | [4] -0.018 | [5] -0.01 | [6] -0.028 | [7] 0.133 | [8] 0.045 | IRAK-1-4 Inhibitor I 0.052

TXNIP (UniProt Q9H3M7)
inactive: erlotinib 0.036 | [1] -0.165 | [2] -0.057 | [3] -0.045 | [4] -0.001 | [5] -0.003 | [6] 0.048 | [7] -0.042 | [8] 0.017 | IRAK-1-4 Inhibitor I 0.041

TXNL4B (UniProt Q9NX01)
inactive: erlotinib -0.057 | [1] 0.081 | [2] 0.012 | [3] -0.117 | [4] -0.35 | [5] -0.019 | [6] 0.002 | [7] -0.102 | [8] -0.004 | IRAK-1-4 Inhibitor I -0.023

TWISTNB (UniProt Q3B726)
inactive: erlotinib 0.008 | [1] -0.154 | [2] 0.032 | [3] -0.006 | [4] -0.005 | [5] -0.018 | [6] -0.025 | [7] 0.003 | [8] 0.06 | IRAK-1-4 Inhibitor I -0.008

UBXN2B (UniProt Q14CS0)
inactive: erlotinib -0.008 | [1] -0.079 | [2] 0.073 | [3] -0.045 | [4] -0.01 | [5] -0.062 | [6] 0.149 | [7] -0.04 | [8] -0.046 | IRAK-1-4 Inhibitor I -0.028

UBQLN4 (UniProt Q9NRR5)
inactive: erlotinib -0.031 | [1] 0.068 | [2] 0.047 | [3] 0.016 | [4] -0.019 | [5] 0.025 | [6] 0.018 | [7] 0.022 | [8] 0.031 | IRAK-1-4 Inhibitor I 0.02

UBE2A (UniProt P49459)
inactive: erlotinib 0.023 | [1] 0 | [2] 0 | [3] 0.018 | [4] 0.033 | [5] 0 | [6] 0.004 | [7] 0.011 | [8] -0.009 | IRAK-1-4 Inhibitor I -0.012

UCHL5 (UniProt Q5LJA9)
inactive: erlotinib -0.052 | [1] 0.084 | [2] 0.005 | [3] -0.024 | [4] -0.032 | [5] 0.016 | [6] -0.045 | [7] 0.035 | [8] 0.006 | IRAK-1-4 Inhibitor I 0.054

Random excerpt: 2 records from the list
UBE2A (UniProt P49459)
inactive: erlotinib 0.023 | [1] 0 | [2] 0 | [3] 0.018 | [4] 0.033 | [5] 0 | [6] 0.004 | [7] 0.011 | [8] -0.009 | IRAK-1-4 Inhibitor I -0.012

UCHL5 (UniProt Q5LJA9)
inactive: erlotinib -0.052 | [1] 0.084 | [2] 0.005 | [3] -0.024 | [4] -0.032 | [5] 0.016 | [6] -0.045 | [7] 0.035 | [8] 0.006 | IRAK-1-4 Inhibitor I 0.054

Remaining list, next part.

UBXN1 (UniProt Q04323)
inactive: erlotinib -0.056 | [1] -0.046 | [2] -0.016 | [3] -0.008 | [4] 0.041 | [5] 0.006 | [6] 0.002 | [7] 0 | [8] -0.005 | IRAK-1-4 Inhibitor I 0.004

UBE2O (UniProt Q9C0C9)
inactive: erlotinib 0.034 | [1] 0.021 | [2] 0.044 | [3] 0.003 | [4] -0.006 | [5] 0.025 | [6] -0.045 | [7] -0.016 | [8] 0.023 | IRAK-1-4 Inhibitor I 0.02

UBE4A isoform 2 (UniProt Q14139)
inactive: erlotinib 0.031 | [1] 0.091 | [2] 0.023 | [3] 0.013 | [4] -0.023 | [5] -0.021 | [6] -0.082 | [7] -0.028 | [8] 0.035 | IRAK-1-4 Inhibitor I 0.004

TXNDC5 (UniProt Q8NBS9)
inactive: erlotinib -0.016 | [1] -0.004 | [2] 0.022 | [3] -0.026 | [4] 0.018 | [5] -0.018 | [6] 0.02 | [7] 0.025 | [8] 0.021 | IRAK-1-4 Inhibitor I 0.012

UAP1L1 (UniProt Q3KQV9)
inactive: erlotinib -0.044 | [1] 0.167 | [2] -0.046 | [3] 0.09 | [4] -0.015 | [5] 0.123 | [6] -0.031 | [7] -0.1 | [8] -0.045 | IRAK-1-4 Inhibitor I -0.087

TXN2 (UniProt Q99757)
inactive: erlotinib -0.009 | [1] 0.019 | [2] -0.022 | [3] 0.014 | [4] -0.116 | [5] 0.008 | [6] 0.025 | [7] -0.066 | [8] 0.028 | IRAK-1-4 Inhibitor I -0.018

UBA6
inactive: erlotinib 0.007 | [1] 0 | [2] -0.004 | [3] 0.01 | [4] -0.004 | [5] 0 | [6] -0.045 | [7] 0.001 | [8] -0.005 | IRAK-1-4 Inhibitor I -0.022

TUBGCP2 isoform 4 (UniProt Q9BSJ2)
inactive: erlotinib 0.036 | [1] -0.048 | [2] 0.012 | [3] 0.025 | [4] 0.014 | [5] -0.005 | [6] -0.029 | [7] -0.014 | [8] 0.004 | IRAK-1-4 Inhibitor I -0.041

UBE2S (UniProt Q16763)
inactive: erlotinib 0.034 | [1] 0.026 | [2] 0.018 | [3] -0.01 | [4] 0.016 | [5] 0.003 | [6] 0.004 | [7] 0.002 | [8] 0 | IRAK-1-4 Inhibitor I 0.012

TXNDC17 (UniProt Q9BRA2)
inactive: erlotinib 0.031 | [1] -0.072 | [2] 0.016 | [3] -0.005 | [4] -0.042 | [5] 0.047 | [6] 0.068 | [7] 0.035 | [8] 0.018 | IRAK-1-4 Inhibitor I 0.006

TXNDC15 (UniProt Q96J42)
inactive: erlotinib 0.019 | [1] -0.163 | [2] 0.071 | [3] -0.003 | [4] -0.039 | [5] -0.01 | [6] -0.086 | [7] 0.038 | [8] 0.117 | IRAK-1-4 Inhibitor I -0.045

TTPAL (UniProt Q9BTX7)
inactive: erlotinib -0.012 | [1] 0.006 | [2] 0.002 | [3] -0.016 | [4] 0.029 | [5] 0.039 | [6] 0.016 | [7] 0.024 | [8] 0.036 | IRAK-1-4 Inhibitor I 0.071

UBQLN1 (UniProt Q9UMX0)
inactive: erlotinib 0 | [1] 0.021 | [2] 0.01 | [3] 0.032 | [4] 0.003 | [5] 0.02 | [6] 0.019 | [7] -0.005 | [8] 0.083 | IRAK-1-4 Inhibitor I 0.019

TUBAL3 (UniProt A6NHL2)
inactive: erlotinib -0.018 | [1] -0.01 | [2] -0.076 | [3] -0.114 | [4] -0.004 | [5] -0.011 | [6] -0.134 | [7] -0.025 | [8] 0.037 | IRAK-1-4 Inhibitor I 0.078

UBE2Q1 (UniProt Q7Z7E8)
inactive: erlotinib -0.005 | [1] 0.009 | [2] 0.029 | [3] 0.002 | [4] -0.001 | [5] -0.009 | [6] -0.012 | [7] -0.005 | [8] 0.027 | IRAK-1-4 Inhibitor I 0.036

TWNK (UniProt Q96RR1)
inactive: erlotinib 0.134 | [1] -0.156 | [2] 0.048 | [3] -0.114 | [4] 0.049 | [5] 0 | [6] -0.146 | [7] -0.095 | [8] 0.178 | IRAK-1-4 Inhibitor I 0.26

UAP1 (UniProt Q16222)
inactive: erlotinib -0.014 | [1] 0.03 | [2] 0.011 | [3] -0.017 | [4] 0 | [5] -0.001 | [6] -0.016 | [7] -0.008 | [8] -0.011 | IRAK-1-4 Inhibitor I -0.006

TUBB (UniProt P07437)
inactive: erlotinib 0.029 | [1] -0.017 | [2] 0.014 | [3] -0.006 | [4] 0.008 | [5] 0.008 | [6] -0.03 | [7] 0.006 | [8] 0.043 | IRAK-1-4 Inhibitor I 0.027
